Measured values taken from publication PMC8593035.
Results are given in words; binding and its absence hold for the method and conditions named. Binding seen in cells or lysates may run through a third protein. Some entries that bind do so weakly or less than the wild type.

Sequences of proteins named here, by UniProt entry; tags and fusion partners are left off.
UniProt Q06609: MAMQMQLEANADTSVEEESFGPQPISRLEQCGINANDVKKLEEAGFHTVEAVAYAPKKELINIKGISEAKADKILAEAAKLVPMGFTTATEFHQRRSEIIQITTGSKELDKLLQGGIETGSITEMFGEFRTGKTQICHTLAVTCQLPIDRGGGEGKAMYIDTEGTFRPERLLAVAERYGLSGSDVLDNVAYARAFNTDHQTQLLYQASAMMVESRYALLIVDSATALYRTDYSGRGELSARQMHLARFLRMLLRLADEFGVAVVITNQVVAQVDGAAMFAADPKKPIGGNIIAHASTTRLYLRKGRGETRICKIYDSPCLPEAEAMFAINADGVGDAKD

Columns and labels:
[1] = molecular target: T1, Nucleolar and spindle-associated protein 1 (endogenous) (human (endogenous in CLL cells)) (UniProt Q9BXS6); test: co-IP; endogenous proteins; cell lysate in Co-IP lysis buffer, 1–3 ug primary antibody overnight at 4 °C, protein A/G PLUS agarose beads 2 h at 4 °C, washed in PBS 3 times, western blot
T1 sequence: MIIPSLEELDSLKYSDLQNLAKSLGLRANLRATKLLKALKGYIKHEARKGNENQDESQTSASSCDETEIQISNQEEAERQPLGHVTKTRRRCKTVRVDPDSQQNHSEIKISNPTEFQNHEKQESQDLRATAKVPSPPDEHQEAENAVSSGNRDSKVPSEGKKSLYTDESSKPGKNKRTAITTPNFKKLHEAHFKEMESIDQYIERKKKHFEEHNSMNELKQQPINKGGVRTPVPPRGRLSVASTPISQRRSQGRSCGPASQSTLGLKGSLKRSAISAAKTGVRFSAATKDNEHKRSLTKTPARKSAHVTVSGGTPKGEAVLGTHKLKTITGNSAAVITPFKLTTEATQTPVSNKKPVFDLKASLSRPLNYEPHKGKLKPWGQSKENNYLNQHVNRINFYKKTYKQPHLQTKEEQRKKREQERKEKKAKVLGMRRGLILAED

[2] = molecular target: T2, NUSAP1, full length (exogenous, from plasmid) (UniProt Q9BXS6); test: co-IP; exogenous proteins from co-transfected plasmids; cell lysate in Co-IP lysis buffer, 1–3 ug primary antibody overnight at 4 °C, protein A/G PLUS agarose beads 2 h at 4 °C, washed in PBS 3 times, western blot
T2 sequence: T1 sequence

Substance	binding [1]	binding [2]
RAD51 (endogenous) (from UniProt Q06609 1-339)	binds	–
RAD51, full length (exogenous, from plasmid) (from UniProt Q06609 1-339)	–	binds
